# The other results are listed elsewhere or left out.
# B1: Ovorubin (Pomacea canaliculata), J7I2T6 (protein)
# chain: MFVATSLLLAIATLVVRASPHNYLIMDIEPPKSVSERDILNLLSPLQVKHSFRVTGSTRLLIVIRLDAQSYEKLDEITVPGKVEVIPAVNMADTMERCGVSWPRVELTDDNVTLFESESTLTDVTKEQLKAMLIGYGEHMSGLLQAHRFEYYQAAGATPHRHFVFVNSVPDEIEVFGREGVDIWGGPGEFVVKPQYVTRI
# What was measured:
# Assay in all cases: glycan array binding signal (z-score within array); higher = stronger binding
# Conditions in all cases: glycan notation: IUPAC condensed, linker removed
# [1] = target: Neu5Ac(a2-6)Gal(b1-4)GlcNAc(b1-3)Gal(b1-4)GlcNAc(b1-3)Gal(b1-4)GlcNAc(b1-2)Man(a1-3)[Neu5Ac(a2-6)Gal(b1-4)GlcNAc(b1-3)Gal(b1-4)GlcNAc(b1-3)Gal(b1-4)GlcNAc(b1-2)Man(a1-6)]GalNAc
# In short: (§1)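 The binding signal is a Z-score computed within each array. Data were drawn from 3228 arrays in the Consortium for Functional Glycomics database, restricted to those with a known protein sequence. Scores were averaged over arrays of the same protein sequence at different concentrations or buffers, and over linkers, and negative values can be taken as non-binding.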
# [2] = target: Neu5Ac(a2-6)Gal(b1-4)GlcNAc(b1-3)Gal(b1-4)GlcNAc(b1-3)GalNAc
# In short: as §1
# [3] = target: Neu5Ac(a2-6)Gal(b1-4)GlcNAc(b1-3)Gal(b1-4)GlcNAc(b1-3)[Neu5Ac(a2-6)Gal(b1-4)GlcNAc(b1-3)Gal(b1-4)GlcNAc(b1-6)]GalNAc
# In short: as §1
# [4] = target: Neu5Ac(a2-6)Gal(b1-4)GlcNAc(b1-3)Gal(b1-4)GlcNAc(b1-6)[Gal(b1-3)]GalNAc
# In short: as §1
# [5] = target: Neu5Ac(a2-6)Gal(b1-4)GlcNAc(b1-3)Gal(b1-4)[Fuc(a1-3)]GlcNAc(b1-3)Gal(b1-4)[Fuc(a1-3)]GlcNAc
# In short: as §1
# [6] = target: Neu5Ac(a2-6)Gal(b1-4)GlcNAc(b1-3)GalNAc
# In short: as §1
# [7] = target: Neu5Ac(a2-6)Gal(b1-4)GlcNAc(b1-3)[Neu5Ac(a2-6)Gal(b1-4)GlcNAc(b1-6)]GalNAc
# In short: as §1
# [8] = target: Neu5Ac(a2-6)Gal(b1-4)GlcNAc(b1-6)GalNAc
# In short: as §1
# [9] = target: Neu5Ac(a2-6)Gal(b1-4)GlcNAc(b1-6)[Gal(b1-3)GlcNAc(b1-3)]Gal(b1-4)Glc
# In short: as §1
# [10] = target: Neu5Ac(a2-6)Gal(b1-4)GlcNAc(b1-6)[Gal(b1-3)]GalNAc
# In short: as §1
# [11] = target: Neu5Ac(a2-6)Gal(b1-4)GlcNAc6S
# In short: as §1
# [12] = target: Neu5Ac(a2-6)GalNAc
# In short: as §1
# [13] = target: Neu5Ac(a2-6)GalNAc(b1-4)GlcNAc
# In short: as §1
# [14] = target: Neu5Ac(a2-6)GalNAc(b1-4)GlcNAc6S
# In short: as §1
# [15] = target: Neu5Ac(a2-6)GlcNAc(b1-4)GlcNAc
# In short: as §1
# [16] = target: Neu5Ac(a2-6)GlcNAc(b1-4)GlcNAc(b1-4)GlcNAc
# In short: as §1
# [17] = target: Neu5Ac(a2-8)Neu5Ac
# In short: as §1
# [18] = target: Neu5Ac(a2-8)Neu5Ac(a2-3)Gal(b1-3)GalNAc(b1-4)[Neu5Ac(a2-3)]Gal(b1-4)Glc
# In short: as §1
# [19] = target: Neu5Ac(a2-8)Neu5Ac(a2-3)Gal(b1-3)GalNAc(b1-4)[Neu5Ac(a2-8)Neu5Ac(a2-3)]Gal(b1-4)Glc
# In short: as §1
# [20] = target: Neu5Ac(a2-8)Neu5Ac(a2-3)Gal(b1-4)Glc
# In short: as §1
# [21] = target: Neu5Ac(a2-8)Neu5Ac(a2-3)Gal(b1-4)GlcNAc
# In short: as §1
# [22] = target: Neu5Ac(a2-8)Neu5Ac(a2-3)[Gal(b1-3)GalNAc(b1-4)]Gal(b1-4)Glc
# In short: as §1
# [23] = target: Neu5Ac(a2-8)Neu5Ac(a2-3)[GalNAc(b1-4)]Gal(b1-4)Glc
# In short: as §1
# [24] = target: Neu5Ac(a2-8)Neu5Ac(a2-8)Neu5Ac
# In short: as §1
# [25] = target: Neu5Ac(a2-8)Neu5Ac(a2-8)Neu5Ac(a2-3)Gal(b1-4)Glc
# In short: as §1
# [26] = target: Neu5Ac(a2-8)Neu5Ac(a2-8)Neu5Ac(a2-3)[Gal(b1-3)GalNAc(b1-4)]Gal(b1-4)Glc
# In short: as §1
# [27] = target: Neu5Ac(a2-8)Neu5Ac(a2-8)Neu5Ac(a2-3)[GalNAc(b1-4)]Gal(b1-4)Glc
# In short: as §1
# [28] = target: Neu5Ac(a2-8)Neu5Ac(a2-8)Neu5Ac(a2-8)Neu5Ac(a2-3)[GalNAc(b1-4)]Gal(b1-4)Glc
# In short: as §1
# [29] = target: Neu5Ac(a2-8)Neu5Gc(a2-3)Gal(b1-4)GlcNAc
# In short: as §1
# [30] = target: Neu5Ac(b2-6)Gal(b1-4)GlcNAc
# In short: as §1
# [31] = target: Neu5Ac(b2-6)GalNAc
# In short: as §1
# [32] = target: Neu5Ac9Ac(a2-3)Gal(b1-3)GlcNAc
# In short: as §1
# [33] = target: Neu5Ac9Ac(a2-3)Gal(b1-4)GlcNAc
# In short: as §1
# [34] = target: Neu5Ac9Ac(a2-6)Gal(b1-4)GlcNAc
# In short: as §1
# [35] = target: Neu5Gc(a2-3)Gal(b1-3)GlcNAc
# In short: as §1
# [36] = target: Neu5Gc(a2-3)Gal(b1-3)[Fuc(a1-4)]GlcNAc
# In short: as §1
# [37] = target: Neu5Gc(a2-3)Gal(b1-4)Glc
# In short: as §1
# [38] = target: Neu5Gc(a2-3)Gal(b1-4)GlcNAc
# In short: as §1
# [39] = target: Neu5Gc(a2-3)Gal(b1-4)GlcNAc(b1-3)Gal(b1-4)GlcNAc(b1-2)Man(a1-3)[Neu5Gc(a2-3)Gal(b1-4)GlcNAc(b1-3)Gal(b1-4)GlcNAc(b1-2)Man(a1-6)]Man(b1-4)GlcNAc(b1-4)GlcNAc
# In short: as §1
# [40] = target: Neu5Gc(a2-3)Gal(b1-4)[Fuc(a1-3)]GlcNAc
# In short: as §1
# [41] = target: Neu5Gc(a2-6)Gal(b1-4)GlcNAc
# In short: as §1
# [42] = target: Neu5Gc(a2-6)GalNAc
# In short: as §1
# [43] = target: Neu5Gc(a2-8)Neu5Ac(a2-3)Gal(b1-4)GlcNAc
# In short: as §1
# [44] = target: Neu5Gc(a2-8)Neu5Gc(a2-3)Gal(b1-4)GlcNAc
# In short: as §1
# [45] = target: Neu5Gc(a2-8)Neu5Gc(a2-3)Gal(b1-4)GlcNAc(b1-3)Gal(b1-4)GlcNAc
# In short: as §1
# [46] = target: Neu5Gc(a2-8)Neu5Gc(a2-6)Gal(b1-4)GlcNAc
# In short: as §1
# [47] = target: Neu5Gc(b2-6)Gal(b1-4)GlcNAc
# In short: as §1
binder,measurement,setting,value
B1,glycan array binding signal (z-score),[1],3.06
same,glycan array binding signal (z-score),[2],-0.625
same,glycan array binding signal (z-score),[3],-0.008
same,glycan array binding signal (z-score),[4],0.024
same,glycan array binding signal (z-score),[5],-0.228
same,glycan array binding signal (z-score),[6],-0.017
same,glycan array binding signal (z-score),[7],0.114
same,glycan array binding signal (z-score),[8],0.155
same,glycan array binding signal (z-score),[9],-0.737
same,glycan array binding signal (z-score),[10],-0.793
same,glycan array binding signal (z-score),[11],-1.32
same,glycan array binding signal (z-score),[12],-0.977
same,glycan array binding signal (z-score),[13],-0.745
same,glycan array binding signal (z-score),[14],0.474
same,glycan array binding signal (z-score),[15],-0.636
same,glycan array binding signal (z-score),[16],-0.924
same,glycan array binding signal (z-score),[17],-0.544
same,glycan array binding signal (z-score),[18],0.093
same,glycan array binding signal (z-score),[19],-0.465
same,glycan array binding signal (z-score),[20],0.107
same,glycan array binding signal (z-score),[21],0.058
same,glycan array binding signal (z-score),[22],0.068
same,glycan array binding signal (z-score),[23],-0.457
same,glycan array binding signal (z-score),[24],0.029
same,glycan array binding signal (z-score),[25],0.813
same,glycan array binding signal (z-score),[26],-0.799
same,glycan array binding signal (z-score),[27],-0.746
same,glycan array binding signal (z-score),[28],-0.739
same,glycan array binding signal (z-score),[29],-0.641
same,glycan array binding signal (z-score),[30],-0.146
same,glycan array binding signal (z-score),[31],-0.939
same,glycan array binding signal (z-score),[32],-0.514
same,glycan array binding signal (z-score),[33],0.045
same,glycan array binding signal (z-score),[34],-0.943
same,glycan array binding signal (z-score),[35],-1.27
same,glycan array binding signal (z-score),[36],-0.099
same,glycan array binding signal (z-score),[37],-0.584
same,glycan array binding signal (z-score),[38],-1.17
same,glycan array binding signal (z-score),[39],0.987
same,glycan array binding signal (z-score),[40],0.174
same,glycan array binding signal (z-score),[41],0.032
same,glycan array binding signal (z-score),[42],0.691
same,glycan array binding signal (z-score),[43],-0.622
same,glycan array binding signal (z-score),[44],-0.543
same,glycan array binding signal (z-score),[45],-0.288
same,glycan array binding signal (z-score),[46],-0.56
same,glycan array binding signal (z-score),[47],-0.319

# Some of the entries so far, with tabs.
binder	measurement	setting	value
B1	glycan array binding signal (z-score)	[9]	-0.737
same	glycan array binding signal (z-score)	[13]	-0.745
same	glycan array binding signal (z-score)	[18]	0.093

# Reference: the supplement of paper PMC8728848
